This note sets out measurements from US20080200369A1 (SANFORD BURNHAM MEDICAL RESEARCH INSTITUTE, published 2008).

Sequences of proteins named here, by UniProt entry; tags and fusion partners are left off. A change or cut given only in a name is not applied to a line headed by its entry. Residues count along the entry.
UniProt Q15303: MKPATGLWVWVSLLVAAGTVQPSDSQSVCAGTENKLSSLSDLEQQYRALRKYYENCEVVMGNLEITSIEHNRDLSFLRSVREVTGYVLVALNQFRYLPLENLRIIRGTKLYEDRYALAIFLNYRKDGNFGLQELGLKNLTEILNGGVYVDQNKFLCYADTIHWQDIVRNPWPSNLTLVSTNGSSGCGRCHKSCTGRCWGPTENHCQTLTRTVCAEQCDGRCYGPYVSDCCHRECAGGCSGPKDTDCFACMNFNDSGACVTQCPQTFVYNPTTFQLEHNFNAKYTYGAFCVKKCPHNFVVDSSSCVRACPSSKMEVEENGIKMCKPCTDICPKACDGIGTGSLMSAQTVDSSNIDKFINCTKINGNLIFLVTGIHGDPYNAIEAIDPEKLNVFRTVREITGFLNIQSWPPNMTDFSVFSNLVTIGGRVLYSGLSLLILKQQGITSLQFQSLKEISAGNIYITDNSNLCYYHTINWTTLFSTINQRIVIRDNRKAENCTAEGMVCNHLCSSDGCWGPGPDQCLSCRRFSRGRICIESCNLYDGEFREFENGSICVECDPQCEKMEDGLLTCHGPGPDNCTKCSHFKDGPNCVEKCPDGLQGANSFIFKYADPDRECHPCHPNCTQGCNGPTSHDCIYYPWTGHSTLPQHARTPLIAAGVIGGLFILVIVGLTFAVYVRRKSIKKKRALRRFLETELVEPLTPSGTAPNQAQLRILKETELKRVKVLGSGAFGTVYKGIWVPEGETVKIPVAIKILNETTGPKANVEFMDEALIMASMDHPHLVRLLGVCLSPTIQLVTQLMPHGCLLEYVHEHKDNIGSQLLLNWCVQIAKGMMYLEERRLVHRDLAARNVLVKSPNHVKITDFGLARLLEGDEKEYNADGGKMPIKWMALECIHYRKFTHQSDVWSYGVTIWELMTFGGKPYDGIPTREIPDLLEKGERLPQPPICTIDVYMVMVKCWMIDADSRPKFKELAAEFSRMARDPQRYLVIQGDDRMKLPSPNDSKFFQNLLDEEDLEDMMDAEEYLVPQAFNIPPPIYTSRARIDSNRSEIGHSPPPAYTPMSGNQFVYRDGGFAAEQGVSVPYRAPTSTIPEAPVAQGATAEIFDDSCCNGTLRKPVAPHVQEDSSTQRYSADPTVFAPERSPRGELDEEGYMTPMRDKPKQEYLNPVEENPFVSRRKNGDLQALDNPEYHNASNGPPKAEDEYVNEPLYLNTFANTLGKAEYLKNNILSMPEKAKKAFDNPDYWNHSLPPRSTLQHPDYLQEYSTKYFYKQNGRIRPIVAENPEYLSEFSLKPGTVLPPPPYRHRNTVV
ErbB4: residues 26-1308 of Q15303
GST-ErbB4 fusion protein (cytoplasmic domain of human ErbB4): residues 676-1308 of Q15303

Assay [1] concerns the target GST-ErbB4 fusion protein (cytoplasmic domain of human ErbB4) (human) (UniProt Q15303). Description: GST pull-down of in vitro translated [^35S]-bystin on glutathione beads, autoradiography (FIG. 7A).
The target in assay [2] is ErbB4 (human) (UniProt Q15303). Description: co-immunoprecipitation from HT-H cells with anti-ErbB4 antibody, Western blot (FIG. 7C). In general terms: A western blot detects proteins with antibodies after separation by electrophoresis.
Assay [3] deals with ErbB4 (human) (UniProt Q15303). Description: co-immunoprecipitation from HT-H cell lysates with anti-ErbB4 antibody, Western blot (FIG. 7C).
Assay [4] concerns the target ErbB4 (human) (UniProt Q15303). The assay is described as follows: co-immunoprecipitation and confocal immunofluorescence co-localization in HT-H cells (FIG. 7C, FIG. 8).
A further assay concerns the target T1, trophinin (human) (UniProt Q12816).
T1 sequence (looked up): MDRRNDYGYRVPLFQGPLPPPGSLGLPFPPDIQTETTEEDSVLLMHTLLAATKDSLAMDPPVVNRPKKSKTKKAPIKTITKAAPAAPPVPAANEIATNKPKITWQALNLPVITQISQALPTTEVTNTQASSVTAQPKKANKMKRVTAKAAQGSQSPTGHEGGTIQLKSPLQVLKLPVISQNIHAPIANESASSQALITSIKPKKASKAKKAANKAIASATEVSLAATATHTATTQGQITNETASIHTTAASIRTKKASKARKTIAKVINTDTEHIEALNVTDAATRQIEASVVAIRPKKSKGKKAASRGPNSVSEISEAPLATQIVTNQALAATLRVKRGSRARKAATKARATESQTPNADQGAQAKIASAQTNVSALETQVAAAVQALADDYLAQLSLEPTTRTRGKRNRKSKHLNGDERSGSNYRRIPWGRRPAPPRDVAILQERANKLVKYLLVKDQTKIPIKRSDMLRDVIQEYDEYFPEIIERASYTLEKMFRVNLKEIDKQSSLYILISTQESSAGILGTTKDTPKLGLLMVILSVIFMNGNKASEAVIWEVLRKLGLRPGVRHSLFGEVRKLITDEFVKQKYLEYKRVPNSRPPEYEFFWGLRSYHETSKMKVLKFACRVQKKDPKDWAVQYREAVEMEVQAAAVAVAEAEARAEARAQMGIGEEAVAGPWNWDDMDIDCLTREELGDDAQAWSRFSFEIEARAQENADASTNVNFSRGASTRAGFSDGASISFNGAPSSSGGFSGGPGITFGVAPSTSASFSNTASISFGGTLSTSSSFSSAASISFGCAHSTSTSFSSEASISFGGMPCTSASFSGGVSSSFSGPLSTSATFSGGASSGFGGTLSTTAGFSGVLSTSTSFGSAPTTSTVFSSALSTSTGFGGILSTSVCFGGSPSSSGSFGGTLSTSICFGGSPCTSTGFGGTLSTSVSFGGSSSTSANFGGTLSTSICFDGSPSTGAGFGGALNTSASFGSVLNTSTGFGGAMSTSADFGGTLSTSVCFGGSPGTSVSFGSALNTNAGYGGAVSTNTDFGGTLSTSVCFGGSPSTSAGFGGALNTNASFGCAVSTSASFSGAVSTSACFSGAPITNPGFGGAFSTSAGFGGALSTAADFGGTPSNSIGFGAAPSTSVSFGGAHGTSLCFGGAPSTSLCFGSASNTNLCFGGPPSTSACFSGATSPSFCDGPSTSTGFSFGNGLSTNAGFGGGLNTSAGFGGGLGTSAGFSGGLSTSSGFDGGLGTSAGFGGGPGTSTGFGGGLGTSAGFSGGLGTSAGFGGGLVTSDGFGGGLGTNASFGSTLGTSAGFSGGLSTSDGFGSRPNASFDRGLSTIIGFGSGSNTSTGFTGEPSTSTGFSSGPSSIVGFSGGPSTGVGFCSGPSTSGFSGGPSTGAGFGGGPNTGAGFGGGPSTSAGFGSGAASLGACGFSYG
Described as above.

Results are given in words; binding and its absence hold for the method and conditions named. In cells and extracts the contact can be indirect. Some binding calls cover weakened binding; strength is not graded here.

B1: [^35S]-bystin (protein, UniProt Q13895 1-437, looked up)
chain: MPKFKAARGVGGQEKHAPLADQILAGNAVRAGVREKRRGRGTGEAEEEYVGPRLSRRILQQARQQQEELEAEHGTGDKPAAPRERTTRLGPRMPQDGSDDEDEEWPTLEKAATMTAAGHHAEVVVDPEDERAIEMFMNKNPPARRTLADIIMEKLTEKQTEVETVMSEVSGFPMPQLDPRVLEVYRGVREVLSKYRSGKLPKAFKIIPALSNWEQILYVTEPEAWTAAAMYQATRIFASNLKERMAQRFYNLVLLPRVRDDVAEYKRLNFHLYMALKKALFKPGAWFKGILIPLCESGTCTLREAIIVGSIITKCSIPVLHSSAAMLKIAEMEYSGANSIFLRLLLDKKYALPYRVLDALVFHFLGFRTEKRELPVLWHQCLLTLVQRYKADLATDQKEALLELLRLQPHPQLSPEIRRELQSAVPRDVEDVPITVE
modifications: [^35S]-methionine labeled
Regarding B1, the binding result in assay [1] is on record as “binds”.

B2: bystin (protein, human, UniProt Q13895 1-437, looked up)
chain: MPKFKAARGVGGQEKHAPLADQILAGNAVRAGVREKRRGRGTGEAEEEYVGPRLSRRILQQARQQQEELEAEHGTGDKPAAPRERTTRLGPRMPQDGSDDEDEEWPTLEKAATMTAAGHHAEVVVDPEDERAIEMFMNKNPPARRTLADIIMEKLTEKQTEVETVMSEVSGFPMPQLDPRVLEVYRGVREVLSKYRSGKLPKAFKIIPALSNWEQILYVTEPEAWTAAAMYQATRIFASNLKERMAQRFYNLVLLPRVRDDVAEYKRLNFHLYMALKKALFKPGAWFKGILIPLCESGTCTLREAIIVGSIITKCSIPVLHSSAAMLKIAEMEYSGANSIFLRLLLDKKYALPYRVLDALVFHFLGFRTEKRELPVLWHQCLLTLVQRYKADLATDQKEALLELLRLQPHPQLSPEIRRELQSAVPRDVEDVPITVE
For B2, the binding entry with ErbB4 (human) [2], with ErbB4 (human) [3], in the assay with ErbB4 (human) [4] and with trophinin (human) was “binds” throughout.
